Results deposited as PubChem BioAssay AID1259254 (NCATS, 2017)

Test: 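Finding genes that stop cells copying their DNA twice in one cycle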 (primary screen)
System: human HCT116 colorectal cancer cells
Reagent: single siRNA against human genes
Time to read-out: 3 days
Detection: 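Nuclei stained with Hoechst and imaged; cell-cycle phase assigned by DNA content; G2 share scaled per plate, non-targeting siRNA 0%, GMNN siRNA 100%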
Reading the numbers: G2 robust z-score: higher = more G2 cells, more excess DNA replication
Active means: 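An siRNA counts as active if its G2 robust z-score lies at least 5 MADs above the screen median; here such calls match roughly 38% of GMNN control or more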
Shown is a random part of about 59,000 deposited reagents. Of all reagents, about 1,550 (2.6%) got an active call. 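G2 share is only a proxy for re-replication; each gene was hit by three separate siRNAs, and active genes were retested.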 Not all columns of the deposit are shown. Not given: the amount of reagent.

With knock-down of ZFYVE28 [SID160746690] the results were G2 robust z-score 0.339; inactive.
Silencing of ZFYVE28 [SID160746692] gave: G2 robust z-score -1.02; inactive.
Knock-down of ZFYVE28 [SID160746693] came out at: G2 robust z-score 1.13; inactive.
After knock-down of ASGR2 [SID160720708], the screen gave G2 robust z-score 9.54; active.
ASGR2 [SID160723664] scored G2 robust z-score 3.2; inactive.
Silencing of ASGR2 [SID160723665] came out at: G2 robust z-score 1.88; inactive.
Against MS4A6E [SID160761934], the values are G2 robust z-score -0.758; inactive.
For MS4A6E [SID160761935] the deposit lists G2 robust z-score 0.373; inactive.
Depletion of MS4A6E [SID160761936] resulted in: G2 robust z-score -0.123; inactive.
Knock-down of SENP3 [SID160737740] gave: G2 robust z-score 1.12; inactive.
Against SENP3 [SID160737741], the values are G2 robust z-score 4.58; inactive.
For SENP3 [SID160737743] the deposit lists G2 robust z-score -0.361; inactive.
Depletion of GXYLT2 [SID160734259] resulted in: G2 robust z-score -1.03; inactive.
Silencing of GXYLT2 [SID160771322] resulted in: G2 robust z-score 0.666; inactive.
For GXYLT2 [SID160771323], the entry reads G2 robust z-score -0.659; inactive.
For LINGO4 [SID160764219] the deposit lists G2 robust z-score -0.459; inactive.
After knock-down of LINGO4 [SID160764221] the results were G2 robust z-score 1.11; inactive.
After knock-down of LINGO4 [SID160764222], the record shows G2 robust z-score -0.392; inactive.

Reagents listed above marked active, once more:
ASGR2 [SID160720708]: G2 robust z-score = 9.54; Call = active
